This is one part of the list.
Columns and labels:
Assay in all cases: log2 fold change, soluble protein after heating vs DMSO (PISA); higher = thermal stabilisation; K562 lysate, 10 uM; active = over 0.2 and 3.5 SD of the protein, either way, in both replicates (recomputed)
[1] = compound: C1=CC=C(C=C1)[C@H](COC2=CC3=C(C=C2)NC(=O)N3)NC(=O)C4=CC=CN(C4=O)CC5=CC(=C(C=C5)F)F
Outline: (§1)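 K562 pellets were dounce-homogenised in PBS pH 7.4 containing 1 mM MgCl2, and the crude extract, at 1 mg/mL protein, was exposed to 10 μM compound for 30 min. Aliquots were heated for 3 min across 48°C-58°C, pooled, brought to 0.5% NP-40 at 4°C and spun at 21,000xg for 90 min, with the supernatant taken as soluble protein. TMTpro 16plex LC-MS/MS with equalised channel sums quantified that protein. Values are log-two fold changes in thermal stability relative to solvent controls, taken from duplicates.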

The chains behind the UniProt entries cited, without tags or fusion partners. Where a name states a change or a piece, a line headed by the entry shows the natural chain unless it says otherwise.
UniProt Q14156: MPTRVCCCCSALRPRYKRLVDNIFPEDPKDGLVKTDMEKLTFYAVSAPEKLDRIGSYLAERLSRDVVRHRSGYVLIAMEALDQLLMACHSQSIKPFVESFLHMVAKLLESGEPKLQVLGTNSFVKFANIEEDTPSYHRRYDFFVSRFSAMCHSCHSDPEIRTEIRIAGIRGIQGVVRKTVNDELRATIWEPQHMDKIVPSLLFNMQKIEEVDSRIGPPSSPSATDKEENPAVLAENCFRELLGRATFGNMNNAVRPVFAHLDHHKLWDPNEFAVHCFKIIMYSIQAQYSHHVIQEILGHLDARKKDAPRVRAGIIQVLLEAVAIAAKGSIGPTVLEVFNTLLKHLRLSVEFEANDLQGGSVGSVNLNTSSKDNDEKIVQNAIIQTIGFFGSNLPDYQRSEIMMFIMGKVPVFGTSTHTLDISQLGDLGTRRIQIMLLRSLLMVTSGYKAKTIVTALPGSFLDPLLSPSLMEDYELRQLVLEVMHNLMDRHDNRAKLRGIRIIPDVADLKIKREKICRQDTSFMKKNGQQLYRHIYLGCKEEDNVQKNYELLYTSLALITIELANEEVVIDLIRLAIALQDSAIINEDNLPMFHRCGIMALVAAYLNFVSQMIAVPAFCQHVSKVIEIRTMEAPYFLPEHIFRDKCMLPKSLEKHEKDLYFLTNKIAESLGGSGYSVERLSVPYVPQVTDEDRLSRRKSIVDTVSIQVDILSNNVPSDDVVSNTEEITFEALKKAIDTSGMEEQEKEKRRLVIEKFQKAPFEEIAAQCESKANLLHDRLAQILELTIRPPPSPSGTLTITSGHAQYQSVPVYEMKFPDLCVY
UniProt Q96DC8: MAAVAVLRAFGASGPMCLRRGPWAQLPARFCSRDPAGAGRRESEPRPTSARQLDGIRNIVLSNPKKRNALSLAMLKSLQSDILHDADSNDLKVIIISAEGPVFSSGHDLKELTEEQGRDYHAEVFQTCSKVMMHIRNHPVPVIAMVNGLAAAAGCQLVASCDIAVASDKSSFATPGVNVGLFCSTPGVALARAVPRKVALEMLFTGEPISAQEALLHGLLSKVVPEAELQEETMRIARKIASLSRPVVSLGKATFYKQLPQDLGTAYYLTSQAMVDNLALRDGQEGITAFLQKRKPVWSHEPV
UniProt Q8TEA8: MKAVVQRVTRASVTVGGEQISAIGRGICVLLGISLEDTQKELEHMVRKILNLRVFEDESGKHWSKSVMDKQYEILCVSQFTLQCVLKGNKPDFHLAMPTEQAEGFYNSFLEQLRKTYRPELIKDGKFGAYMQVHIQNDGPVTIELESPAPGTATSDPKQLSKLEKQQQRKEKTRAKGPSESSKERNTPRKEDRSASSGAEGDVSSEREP
UniProt P41567, whole entry, looked up: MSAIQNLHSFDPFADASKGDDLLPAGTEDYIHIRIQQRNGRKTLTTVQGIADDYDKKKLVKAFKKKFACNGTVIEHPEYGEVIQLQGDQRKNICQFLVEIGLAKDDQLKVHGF
UniProt Q9NX74: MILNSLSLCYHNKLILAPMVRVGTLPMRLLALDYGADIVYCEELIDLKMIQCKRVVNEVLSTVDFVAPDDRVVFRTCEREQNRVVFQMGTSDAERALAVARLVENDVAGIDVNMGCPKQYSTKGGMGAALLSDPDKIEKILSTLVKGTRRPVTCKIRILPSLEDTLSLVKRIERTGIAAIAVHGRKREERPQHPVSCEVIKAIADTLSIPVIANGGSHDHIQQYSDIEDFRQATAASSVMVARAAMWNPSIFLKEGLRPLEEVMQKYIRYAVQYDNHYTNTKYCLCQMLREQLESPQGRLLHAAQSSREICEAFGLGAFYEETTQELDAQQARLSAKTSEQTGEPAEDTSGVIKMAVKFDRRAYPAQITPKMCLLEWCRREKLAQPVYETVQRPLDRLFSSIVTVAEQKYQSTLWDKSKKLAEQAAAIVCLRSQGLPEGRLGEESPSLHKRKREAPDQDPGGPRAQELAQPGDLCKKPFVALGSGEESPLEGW
UniProt Q9H223: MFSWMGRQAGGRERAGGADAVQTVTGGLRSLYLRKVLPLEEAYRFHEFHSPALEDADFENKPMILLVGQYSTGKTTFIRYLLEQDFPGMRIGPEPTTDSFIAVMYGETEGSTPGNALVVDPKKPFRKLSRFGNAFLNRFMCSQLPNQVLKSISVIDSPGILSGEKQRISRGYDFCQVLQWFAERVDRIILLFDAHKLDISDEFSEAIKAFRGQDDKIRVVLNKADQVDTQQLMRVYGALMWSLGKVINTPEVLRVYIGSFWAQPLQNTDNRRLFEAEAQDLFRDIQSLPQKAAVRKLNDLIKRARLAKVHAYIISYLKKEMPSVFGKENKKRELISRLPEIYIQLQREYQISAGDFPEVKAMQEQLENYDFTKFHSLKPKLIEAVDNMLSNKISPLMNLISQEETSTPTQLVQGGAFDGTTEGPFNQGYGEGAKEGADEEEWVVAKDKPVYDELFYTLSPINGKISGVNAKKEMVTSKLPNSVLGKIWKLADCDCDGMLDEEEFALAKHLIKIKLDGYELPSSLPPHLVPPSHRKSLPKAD
UniProt Q6V1X1: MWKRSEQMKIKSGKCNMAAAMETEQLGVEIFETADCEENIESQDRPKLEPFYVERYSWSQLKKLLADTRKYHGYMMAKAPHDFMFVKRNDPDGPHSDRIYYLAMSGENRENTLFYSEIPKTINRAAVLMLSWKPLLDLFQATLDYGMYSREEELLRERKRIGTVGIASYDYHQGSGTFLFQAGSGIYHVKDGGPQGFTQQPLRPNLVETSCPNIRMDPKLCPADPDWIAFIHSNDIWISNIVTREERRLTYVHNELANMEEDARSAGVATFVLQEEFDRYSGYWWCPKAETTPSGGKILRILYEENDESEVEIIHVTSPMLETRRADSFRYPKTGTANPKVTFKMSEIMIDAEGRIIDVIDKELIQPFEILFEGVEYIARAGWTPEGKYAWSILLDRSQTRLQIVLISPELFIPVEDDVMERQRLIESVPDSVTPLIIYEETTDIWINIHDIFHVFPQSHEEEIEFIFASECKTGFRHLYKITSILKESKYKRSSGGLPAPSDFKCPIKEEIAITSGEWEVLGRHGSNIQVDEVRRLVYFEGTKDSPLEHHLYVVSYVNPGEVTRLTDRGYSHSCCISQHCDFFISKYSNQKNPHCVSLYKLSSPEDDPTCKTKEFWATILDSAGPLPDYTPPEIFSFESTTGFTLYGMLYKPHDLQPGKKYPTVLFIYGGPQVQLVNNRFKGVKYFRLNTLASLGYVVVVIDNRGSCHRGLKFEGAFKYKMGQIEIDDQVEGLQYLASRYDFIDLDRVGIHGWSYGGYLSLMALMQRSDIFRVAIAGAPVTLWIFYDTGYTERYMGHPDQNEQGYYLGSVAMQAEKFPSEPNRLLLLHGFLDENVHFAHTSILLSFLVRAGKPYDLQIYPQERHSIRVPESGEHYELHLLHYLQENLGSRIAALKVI
UniProt Q8N3D4: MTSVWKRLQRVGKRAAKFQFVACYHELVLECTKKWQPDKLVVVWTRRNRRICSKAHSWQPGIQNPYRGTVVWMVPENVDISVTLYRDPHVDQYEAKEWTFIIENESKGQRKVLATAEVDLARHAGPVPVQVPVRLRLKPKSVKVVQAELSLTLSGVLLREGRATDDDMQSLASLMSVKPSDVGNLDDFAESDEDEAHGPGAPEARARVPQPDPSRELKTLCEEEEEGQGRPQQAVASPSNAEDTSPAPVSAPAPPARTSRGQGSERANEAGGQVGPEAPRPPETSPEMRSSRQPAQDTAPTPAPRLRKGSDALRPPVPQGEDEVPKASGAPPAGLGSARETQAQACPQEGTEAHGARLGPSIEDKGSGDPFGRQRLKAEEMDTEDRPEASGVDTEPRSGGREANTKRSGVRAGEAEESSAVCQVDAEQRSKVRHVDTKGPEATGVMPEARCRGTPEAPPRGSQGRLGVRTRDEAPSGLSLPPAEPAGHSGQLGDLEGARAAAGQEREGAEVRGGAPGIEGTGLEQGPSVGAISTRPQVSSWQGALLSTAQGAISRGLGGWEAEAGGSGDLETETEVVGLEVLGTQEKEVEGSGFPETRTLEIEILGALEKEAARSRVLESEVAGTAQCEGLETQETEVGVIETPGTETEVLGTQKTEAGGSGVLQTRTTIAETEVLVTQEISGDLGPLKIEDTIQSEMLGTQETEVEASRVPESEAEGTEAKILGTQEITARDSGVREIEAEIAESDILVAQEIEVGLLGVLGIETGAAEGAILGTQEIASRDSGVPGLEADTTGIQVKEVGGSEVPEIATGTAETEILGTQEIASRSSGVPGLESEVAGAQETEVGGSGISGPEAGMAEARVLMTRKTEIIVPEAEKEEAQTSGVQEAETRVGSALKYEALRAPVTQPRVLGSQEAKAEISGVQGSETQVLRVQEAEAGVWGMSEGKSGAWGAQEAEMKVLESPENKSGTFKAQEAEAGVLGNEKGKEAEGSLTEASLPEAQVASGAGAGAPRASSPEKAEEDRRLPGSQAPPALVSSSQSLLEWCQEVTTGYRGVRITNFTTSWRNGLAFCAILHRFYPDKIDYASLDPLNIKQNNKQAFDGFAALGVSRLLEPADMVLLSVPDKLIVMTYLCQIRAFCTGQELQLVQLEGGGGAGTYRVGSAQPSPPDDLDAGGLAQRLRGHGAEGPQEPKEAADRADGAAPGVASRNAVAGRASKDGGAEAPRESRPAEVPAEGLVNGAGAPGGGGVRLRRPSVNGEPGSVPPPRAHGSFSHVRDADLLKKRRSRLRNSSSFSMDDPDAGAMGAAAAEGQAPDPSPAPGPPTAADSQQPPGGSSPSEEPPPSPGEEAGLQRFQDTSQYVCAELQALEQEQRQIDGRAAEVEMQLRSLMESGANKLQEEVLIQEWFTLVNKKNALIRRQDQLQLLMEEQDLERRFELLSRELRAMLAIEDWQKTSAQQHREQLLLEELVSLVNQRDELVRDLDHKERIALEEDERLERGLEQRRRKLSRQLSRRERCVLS
UniProt P29692: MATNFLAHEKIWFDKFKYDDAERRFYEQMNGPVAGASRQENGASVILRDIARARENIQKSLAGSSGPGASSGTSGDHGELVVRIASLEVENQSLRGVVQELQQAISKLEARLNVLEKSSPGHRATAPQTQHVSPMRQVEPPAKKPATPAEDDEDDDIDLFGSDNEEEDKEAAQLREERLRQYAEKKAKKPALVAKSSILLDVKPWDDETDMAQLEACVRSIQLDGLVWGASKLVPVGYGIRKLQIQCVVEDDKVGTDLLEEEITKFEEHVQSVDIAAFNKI
UniProt Q8N6R0: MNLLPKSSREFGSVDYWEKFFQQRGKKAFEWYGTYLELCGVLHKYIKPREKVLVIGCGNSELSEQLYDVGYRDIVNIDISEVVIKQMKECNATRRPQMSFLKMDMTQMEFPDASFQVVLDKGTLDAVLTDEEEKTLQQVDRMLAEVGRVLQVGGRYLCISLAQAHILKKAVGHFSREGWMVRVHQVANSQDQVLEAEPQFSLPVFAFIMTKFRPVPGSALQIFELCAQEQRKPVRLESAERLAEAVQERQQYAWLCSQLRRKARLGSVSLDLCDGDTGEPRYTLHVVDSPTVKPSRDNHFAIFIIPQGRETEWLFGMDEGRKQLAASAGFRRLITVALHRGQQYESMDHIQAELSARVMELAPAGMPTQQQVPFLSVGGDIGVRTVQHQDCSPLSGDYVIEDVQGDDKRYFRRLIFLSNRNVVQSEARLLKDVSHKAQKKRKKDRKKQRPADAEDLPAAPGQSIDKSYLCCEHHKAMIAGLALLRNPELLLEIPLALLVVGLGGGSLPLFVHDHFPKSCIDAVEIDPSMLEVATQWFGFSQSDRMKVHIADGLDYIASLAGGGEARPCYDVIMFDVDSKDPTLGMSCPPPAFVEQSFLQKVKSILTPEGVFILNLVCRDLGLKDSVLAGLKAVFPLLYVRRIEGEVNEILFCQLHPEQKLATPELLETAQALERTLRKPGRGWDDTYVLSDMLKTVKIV
UniProt O75521: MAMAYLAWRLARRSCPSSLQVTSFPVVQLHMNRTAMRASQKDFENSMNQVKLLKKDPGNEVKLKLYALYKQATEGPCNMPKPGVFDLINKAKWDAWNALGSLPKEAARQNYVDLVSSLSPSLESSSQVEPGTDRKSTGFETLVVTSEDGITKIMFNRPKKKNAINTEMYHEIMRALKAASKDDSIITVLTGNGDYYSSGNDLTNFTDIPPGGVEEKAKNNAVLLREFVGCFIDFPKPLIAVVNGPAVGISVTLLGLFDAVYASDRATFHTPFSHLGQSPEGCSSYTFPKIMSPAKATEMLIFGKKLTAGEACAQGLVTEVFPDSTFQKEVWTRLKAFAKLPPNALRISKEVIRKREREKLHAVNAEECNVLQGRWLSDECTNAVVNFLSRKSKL
UniProt Q8N9N8: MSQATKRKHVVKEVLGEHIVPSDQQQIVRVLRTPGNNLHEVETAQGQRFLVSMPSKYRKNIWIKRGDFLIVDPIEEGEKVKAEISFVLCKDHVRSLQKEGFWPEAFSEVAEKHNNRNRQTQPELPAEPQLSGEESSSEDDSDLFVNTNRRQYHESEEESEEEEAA

[2] = compound: CC1=C(SC2=C1C(=N[C@H](C3=NN=C(N32)C)CC(=O)N)C4=CC=C(C=C4)Cl)C
Outline: as §1

[3] = compound: CC1=C2C(=CC=C1)N=C(N(C2=O)C3=CC=CC=C3C)CN4C=NC5=C(N=CN=C54)N
Outline: as §1

[4] = compound: Cc1sc2c(c1C)C(c1ccc(Cl)cc1)=N[C@@H](CC(=O)OC(C)(C)C)c1nnc(C)n1-2
Outline: as §1

[5] = compound: c1ccc([C@@H]2C[C@H]2NC2CCNCC2)cc1
Outline: as §1

Measured: log2 fold change

DPP7 (UniProt Q9UHL4)
inactive: [1] 0.019 | [2] -0.036 | [3] 0.04 | [4] -0.034 | [5] 0.01

EFNB1 (UniProt P98172)
inactive: [1] 0.005 | [2] 0.003 | [3] 0.032 | [4] -0.031 | [5] -0.074

EDEM1 (UniProt Q92611)
inactive: [1] 0.009 | [2] 0 | [3] -0.083 | [4] 0.008 | [5] 0.01

EFR3A (UniProt Q14156)
inactive: [1] -0.196 | [2] 0.133 | [3] 0.031 | [4] -0.018 | [5] 0.129

ECHDC3 (UniProt Q96DC8)
inactive: [1] 0.132 | [2] -0.061 | [3] -0.203 | [4] -0.013 | [5] -0.101

DTD1 (UniProt Q8TEA8)
inactive: [1] 0.015 | [2] -0.023 | [3] -0.02 | [4] -0.039 | [5] -0.017

EIF1 (UniProt P41567)
inactive: [1] 0.146 | [2] -0.034 | [3] -0.031 | [4] -0.035 | [5] -0.114

E4F1 (UniProt Q66K89)
inactive: [1] 0.058 | [2] 0.517 | [3] -0.174 | [4] 0.049 | [5] 0.022

EDC4 (UniProt Q6P2E9)
inactive: [1] -0.026 | [2] 0.005 | [3] 0.027 | [4] 0.008 | [5] 0.011

DUS2 (UniProt Q9NX74)
inactive: [1] 0.037 | [2] 0.018 | [3] -0.018 | [4] 0.055 | [5] 0.116

EHD4 (UniProt Q9H223)
inactive: [1] -0.033 | [2] 0.007 | [3] 0.042 | [4] 0.036 | [5] 0.06

DPP8 (UniProt Q6V1X1)
inactive: [1] -0.046 | [2] 0.028 | [3] 0.041 | [4] -0.095 | [5] 0.073

DYNC1I2 isoform 2 (UniProt Q13409)
inactive: [1] -0.011 | [2] 0.253 | [3] -0.005 | [4] 0.082 | [5] 0.155

EBAG9 isoform 2 (UniProt O00559)
inactive: [1] 0.01 | [2] -0.067 | [3] -0.001 | [4] -0.168 | [5] -0.065

EHBP1L1 (UniProt Q8N3D4)
inactive: [1] 0.002 | [2] 0.004 | [3] 0.009 | [4] -0.009 | [5] -0.01

Quoted from the listing (six entries):
E4F1 (UniProt Q66K89)
inactive: [1] 0.058 | [2] 0.517 | [3] -0.174 | [4] 0.049 | [5] 0.022

EDC4 (UniProt Q6P2E9)
inactive: [1] -0.026 | [2] 0.005 | [3] 0.027 | [4] 0.008 | [5] 0.011

DUS2 (UniProt Q9NX74)
inactive: [1] 0.037 | [2] 0.018 | [3] -0.018 | [4] 0.055 | [5] 0.116

EHD4 (UniProt Q9H223)
inactive: [1] -0.033 | [2] 0.007 | [3] 0.042 | [4] 0.036 | [5] 0.06

DPP8 (UniProt Q6V1X1)
inactive: [1] -0.046 | [2] 0.028 | [3] 0.041 | [4] -0.095 | [5] 0.073

DYNC1I2 isoform 2 (UniProt Q13409)
inactive: [1] -0.011 | [2] 0.253 | [3] -0.005 | [4] 0.082 | [5] 0.155

Later entries:

DPH7 (UniProt Q9BTV6)
inactive: [1] 0.002 | [2] 0.027 | [3] 0.063 | [4] -0.059 | [5] -0.06

EEF1D isoform 2 (UniProt P29692)
inactive: [1] -0.015 | [2] 0.014 | [3] 0.014 | [4] -0.013 | [5] -0.089

EEF1AKNMT (UniProt Q8N6R0)
inactive: [1] -0.012 | [2] -0.073 | [3] 0.013 | [4] 0.018 | [5] 0.042

EEF1A1P5 (UniProt Q5VTE0)
inactive: [1] 0.006 | [2] 0.011 | [3] 0.004 | [4] -0.067 | [5] -0.036

ECI2 (UniProt O75521)
inactive: [1] 0.019 | [2] -0.005 | [3] 0.014 | [4] -0.009 | [5] -0.045

EIF1AD (UniProt Q8N9N8)
inactive: [1] 0.026 | [2] 0.004 | [3] -0.01 | [4] 0.037 | [5] -0.034

DYNC2H1 isoform 2 (UniProt Q8NCM8)
inactive: [1] -0.011 | [2] -0.034 | [3] -0.026 | [4] -0.084 | [5] -0.018

EHD1 (UniProt Q9H4M9)
inactive: [1] -0.023 | [2] 0.009 | [3] 0.009 | [4] -0.034 | [5] 0.072

DUSP12 (UniProt Q9UNI6)
inactive: [1] -0.014 | [2] 0.001 | [3] 0.029 | [4] 0.018 | [5] 0.003
